According to paper doi:10.1101/2024.01.04.574143:
No constants are given. Whether binding was seen depends on the method and setting. Binding can be weak; no strength is given. For some of these results: Where a sequence is shown, tags or fusion partners need not be part of it.

B1: Siz1(313-508), SIM-containing catalytic fragment of S. cerevisiae Siz1 (domain or fragment, UniProt Q04195 313-508)
chain: MITPEQLLEKVLQHPKIIKQATLLYLKKTLREDEEMGLTTTSTIMSLQCPISYTRMKYPSKSINCKHLQCFDALWFLHSQLQIPTWQCPVCQIDIALENLAISEFVDDILQNCQKNVEQVELTSDGKWTAILEDDDDSDSDSNDGSRSPEKGTSVSDHHCSSSHPSEPIIINLDSDDDEPNGNNPHVTNNHDDSNR
B2: TDP2 (N-terminally GST-tagged) (enzyme, UniProt O95551 1-362)
chain: MELGSCLEGGREAAEEEGEPEVKKRRLLCVEFASVASCDAAVAQCFLAENDWEMERALNSYFEPPVEESALERRPETISEPKTYVDLTNEETTDSTTSKISPSEDTQQENGSMFSLITWNIDGLDLNNLSERARGVCSYLALYSPDVIFLQEVIPPYYSYLKKRSSNYEIITGHEEGYFTAIMLKKSRVKLKSQEIIPFPSTKMMRNLLCVHVNVSGNELCLMTSHLESTRGHAAERMNQLKMVLKKMQEAPESATVIFAGDTNLRDREVTRCGGLPNNIVDVWEFLGKPKHCQYTWDTQMNSNLGITAACKLRFDRIFFRAAAEEGHIIPRSLDLLGLEKLDCGRFPSDHWGLLCNLDIIL

Experiments:
Experiment in all cases: pull-down
[1] = molecular target: Smt3 with the N-terminus deleted (untagged) (S. cerevisiae) [SUMO: Q12306]
[2] = molecular target: SUMO1 E11K (untagged) (human)
[3] = molecular target: SUMO1 D12K (untagged) (human)
[4] = molecular target: SUMO1ΔN19 (untagged) (human)

| Binder | binding [1] | binding [2] | binding [3] | binding [4] |
| --- | --- | --- | --- | --- |
| B1 | binds |  |  |  |
| B2 |  | binds | binds | binds |
